# Assay results taken from the supplement of paper PMC8728848.
# This is one part of the list.
# Assays:
# Assay in all cases: glycan array binding signal (z-score within array); higher = stronger binding
# Settings in all cases: glycan notation: IUPAC condensed, linker removed
# Fuc(a1-3)GlcNAc = target: Fuc(a1-3)GlcNAc
# In short: (§1)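 The Consortium for Functional Glycomics database supplied 3228 glycan arrays, of which those lacking an available protein sequence were dropped. The binding signal, a within-array Z-score, was averaged across arrays of the same protein sequence and across linkers. Negative scores can be read as non-binding.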
# [1] = target: Fuc(a1-3)[Gal(b1-4)]Glc6S
# In short: as §1
# [2] = target: Fuc(a1-3)[Gal(b1-4)]GlcNAc
# In short: as §1
# [3] = target: Fuc(a1-3)[Gal(b1-4)]GlcNAc(b1-2)Man
# In short: as §1
# [4] = target: Fuc(a1-3)[Gal(b1-4)]GlcNAc(b1-2)Man(a1-3)[Fuc(a1-3)[Gal(b1-4)]GlcNAc(b1-2)Man(a1-6)]Man(b1-4)GlcNAc(b1-4)GlcNAc
# In short: as §1
# [5] = target: Fuc(a1-3)[Gal(b1-4)]GlcNAc(b1-2)Man(a1-3)[Fuc(a1-3)[Gal(b1-4)]GlcNAc(b1-2)Man(a1-6)]Man(b1-4)GlcNAc(b1-4)[Fuc(a1-6)]GlcNAc
# In short: as §1
# [6] = target: Fuc(a1-3)[Gal(b1-4)]GlcNAc(b1-3)Gal(b1-3)[Fuc(a1-4)]GlcNAc
# In short: as §1
# [7] = target: Fuc(a1-3)[Gal(b1-4)]GlcNAc(b1-3)Gal(b1-4)[Fuc(a1-3)]GlcNAc
# In short: as §1
# [8] = target: Fuc(a1-3)[Gal(b1-4)]GlcNAc(b1-3)Gal(b1-4)[Fuc(a1-3)]GlcNAc(b1-3)Gal(b1-4)[Fuc(a1-3)]GlcNAc
# In short: as §1
# [9] = target: Fuc(a1-3)[Gal(b1-4)]GlcNAc(b1-3)GalNAc
# In short: as §1
# [10] = target: Fuc(a1-3)[Gal(b1-4)]GlcNAc(b1-6)GalNAc
# In short: as §1
# [11] = target: Fuc(a1-3)[Gal(b1-4)]GlcNAc(b1-6)[Gal(b1-3)GlcNAc(b1-3)]Gal(b1-4)Glc
# In short: as §1
# [12] = target: Fuc(a1-3)[Gal(b1-4)]GlcNAc6S
# In short: as §1
# [13] = target: Fuc(a1-3)[Gal3S(b1-4)]Glc
# In short: as §1
# [14] = target: Fuc(a1-3)[Gal3S(b1-4)]GlcNAc
# In short: as §1
# [15] = target: Fuc(a1-3)[Gal3S(b1-4)]GlcNAc6S
# In short: as §1
# [16] = target: Fuc(a1-3)[GalNAc(b1-4)]GlcNAc
# In short: as §1
# [17] = target: Fuc(a1-3)[GalNAc(b1-4)]GlcNAc6S
# In short: as §1
# Fuc(a1-4)GlcNAc = target: Fuc(a1-4)GlcNAc
# In short: as §1
# Fuc(b1-3)GlcNAc = target: Fuc(b1-3)GlcNAc
# In short: as §1
# Gal(a1-2)Gal = target: Gal(a1-2)Gal
# In short: as §1
# Gal(a1-3)Gal = target: Gal(a1-3)Gal
# In short: as §1
# Gal(a1-3)Gal(b1-3)GlcNAc = target: Gal(a1-3)Gal(b1-3)GlcNAc
# In short: as §1
# [18] = target: Gal(a1-3)Gal(b1-3)GlcNAc(b1-2)Man
# In short: as §1
# [19] = target: Gal(a1-3)Gal(b1-3)GlcNAc(b1-2)Man(a1-3)[Gal(a1-3)Gal(b1-3)GlcNAc(b1-2)Man(a1-6)]Man(b1-4)GlcNAc(b1-4)GlcNAc
# In short: as §1
# [20] = target: Gal(a1-3)Gal(b1-3)GlcNAc(b1-3)GalNAc
# In short: as §1
# [21] = target: Gal(a1-3)Gal(b1-3)GlcNAc(b1-6)GalNAc
# In short: as §1
# [22] = target: Gal(a1-3)Gal(b1-3)[Fuc(a1-4)]GlcNAc(b1-2)Man(a1-3)[Gal(a1-3)Gal(b1-3)[Fuc(a1-4)]GlcNAc(b1-2)Man(a1-6)]Man(b1-4)GlcNAc(b1-4)GlcNAc
# In short: as §1
# Gal(a1-3)Gal(b1-4)Glc = target: Gal(a1-3)Gal(b1-4)Glc
# In short: as §1
# Gal(a1-3)Gal(b1-4)GlcNAc = target: Gal(a1-3)Gal(b1-4)GlcNAc
# In short: as §1
binder,measurement,setting,value
TAL6-6LysM (Trichoderma atroviride) (protein) AASKLGVPQPAQRDQVNCQLYAVQPNDNCIDISSKNNITYAQLLSWNPSLSSTCSNLASLNSSSICVSNPKGTFSISSNTVGATDIATTTAPVPSPTLDQTTSRCAKYYQVSDGDDCSHLTAQFAITLKDFIFLNSEVWQNCTNLELGYYYCVEPVGYISTYPGYLPTATTKPFNQTSATSLPYDGDPWARFSSNSSVIPIANGTRVDCYSYVYVKNLTENLFADCWNMASMYEITREELVLWNPSLGNDGSSGSNLSGAEASQVASSIAIPTTAPSSITTNLYTYPCTVAANISYCVALVSSTGALPTNTAPPGPHASGEISNCTAWFAPEAYDTCKSILDIFEMSFANFYKMNPSVGPDCSGLAVGTNYCVSTYPNGEDPNDDWDGDDSIPSISPTGIITPTPTQSGMVSNCNKFYDVHSNDGCSAIASSQHVDLSSLYKWNPAIKTDCSGLQASVYVCIGILTTSMSTTSKLPTTTSKPSTTSKPPTGITTPTPTQSGMVKNCNKFYDVHSGDGCSAIASSQKVNLSSFYLWNPAVKTDCSGLQASVFVCIGTLTTSMSTTTSKLPTTTSKPSTTSKPPTGIITPTPTQNGMVKNCNKFYDVHSGDGCSAIASSQKVNLSSFYLWNPAVKTDCSGLQASVFVCVGTATTTTAAGITTPTPTQSGMVSGCNKFYDVHAGDGCSAIASSQKIALSSLYKWNPAVKTDCSGLQASVYICIGVGNAAAARVTGAAASFLEQKLISEEDLNSAVDHHHHHH,glycan array binding signal (z-score),Fuc(a1-3)GlcNAc,0.349
same,glycan array binding signal (z-score),[1],0.626
same,glycan array binding signal (z-score),[2],-0.409
same,glycan array binding signal (z-score),[3],0.367
same,glycan array binding signal (z-score),[4],-0.826
same,glycan array binding signal (z-score),[5],0.673
same,glycan array binding signal (z-score),[6],0.407
same,glycan array binding signal (z-score),[7],-0.013
same,glycan array binding signal (z-score),[8],-0.383
same,glycan array binding signal (z-score),[9],0.693
same,glycan array binding signal (z-score),[10],-0.638
same,glycan array binding signal (z-score),[11],0.048
same,glycan array binding signal (z-score),[12],0.507
same,glycan array binding signal (z-score),[13],-0.761
same,glycan array binding signal (z-score),[14],0.226
same,glycan array binding signal (z-score),[15],-0.382
same,glycan array binding signal (z-score),[16],2.99
same,glycan array binding signal (z-score),[17],0.001
same,glycan array binding signal (z-score),Fuc(a1-4)GlcNAc,-0.874
same,glycan array binding signal (z-score),Fuc(b1-3)GlcNAc,-0.453
same,glycan array binding signal (z-score),Gal(a1-2)Gal,-0.944
same,glycan array binding signal (z-score),Gal(a1-3)Gal,-0.44
same,glycan array binding signal (z-score),Gal(a1-3)Gal(b1-3)GlcNAc,-0.376
same,glycan array binding signal (z-score),[18],0.127
same,glycan array binding signal (z-score),[19],-0.832
same,glycan array binding signal (z-score),[20],0.586
same,glycan array binding signal (z-score),[21],-1.26
same,glycan array binding signal (z-score),[22],1.5
same,glycan array binding signal (z-score),Gal(a1-3)Gal(b1-4)Glc,-0.26
same,glycan array binding signal (z-score),Gal(a1-3)Gal(b1-4)GlcNAc,2.22

# Part of the list above, bar-delimited.
binder | measurement | setting | value
TAL6-6LysM (Trichoderma atroviride) (protein) AASKLGVPQPAQRDQVNCQLYAVQPNDNCIDISSKNNITYAQLLSWNPSLSSTCSNLASLNSSSICVSNPKGTFSISSNTVGATDIATTTAPVPSPTLDQTTSRCAKYYQVSDGDDCSHLTAQFAITLKDFIFLNSEVWQNCTNLELGYYYCVEPVGYISTYPGYLPTATTKPFNQTSATSLPYDGDPWARFSSNSSVIPIANGTRVDCYSYVYVKNLTENLFADCWNMASMYEITREELVLWNPSLGNDGSSGSNLSGAEASQVASSIAIPTTAPSSITTNLYTYPCTVAANISYCVALVSSTGALPTNTAPPGPHASGEISNCTAWFAPEAYDTCKSILDIFEMSFANFYKMNPSVGPDCSGLAVGTNYCVSTYPNGEDPNDDWDGDDSIPSISPTGIITPTPTQSGMVSNCNKFYDVHSNDGCSAIASSQHVDLSSLYKWNPAIKTDCSGLQASVYVCIGILTTSMSTTSKLPTTTSKPSTTSKPPTGITTPTPTQSGMVKNCNKFYDVHSGDGCSAIASSQKVNLSSFYLWNPAVKTDCSGLQASVFVCIGTLTTSMSTTTSKLPTTTSKPSTTSKPPTGIITPTPTQNGMVKNCNKFYDVHSGDGCSAIASSQKVNLSSFYLWNPAVKTDCSGLQASVFVCVGTATTTTAAGITTPTPTQSGMVSGCNKFYDVHAGDGCSAIASSQKIALSSLYKWNPAVKTDCSGLQASVYICIGVGNAAAARVTGAAASFLEQKLISEEDLNSAVDHHHHHH | glycan array binding signal (z-score) | [8] | -0.383
same | glycan array binding signal (z-score) | [9] | 0.693
